Experimental data reported in paper PMC8257255, “Soluble Fas ligand drives autoantibody-induced arthritis by binding to DR5/TRAIL-R2” (eLife, 2021).
No constants are given. Whether binding was seen depends on the method and setting. For part of these data: Binding seen in cells or lysates may run through a third protein. Some results given as binding are weak or reduced against the parent protein; the word gives no strength. One block for each substance: values may come before it.

Amino acid sequences for entries named in this document (tags omitted). A change or cut given only in a name is not applied to a line headed by its entry. Chains listed by the source or under a name are the forms on record and can include a tag or linker. Residues count along the entry.
UniProt P48023: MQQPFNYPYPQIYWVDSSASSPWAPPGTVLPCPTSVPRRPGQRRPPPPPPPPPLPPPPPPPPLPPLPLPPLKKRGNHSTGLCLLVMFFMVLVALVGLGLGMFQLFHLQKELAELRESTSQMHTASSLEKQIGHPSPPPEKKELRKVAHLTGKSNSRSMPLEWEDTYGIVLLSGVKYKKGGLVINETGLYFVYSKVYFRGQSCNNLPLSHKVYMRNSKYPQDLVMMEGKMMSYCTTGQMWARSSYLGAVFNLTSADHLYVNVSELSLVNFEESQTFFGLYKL
UniProt O14763: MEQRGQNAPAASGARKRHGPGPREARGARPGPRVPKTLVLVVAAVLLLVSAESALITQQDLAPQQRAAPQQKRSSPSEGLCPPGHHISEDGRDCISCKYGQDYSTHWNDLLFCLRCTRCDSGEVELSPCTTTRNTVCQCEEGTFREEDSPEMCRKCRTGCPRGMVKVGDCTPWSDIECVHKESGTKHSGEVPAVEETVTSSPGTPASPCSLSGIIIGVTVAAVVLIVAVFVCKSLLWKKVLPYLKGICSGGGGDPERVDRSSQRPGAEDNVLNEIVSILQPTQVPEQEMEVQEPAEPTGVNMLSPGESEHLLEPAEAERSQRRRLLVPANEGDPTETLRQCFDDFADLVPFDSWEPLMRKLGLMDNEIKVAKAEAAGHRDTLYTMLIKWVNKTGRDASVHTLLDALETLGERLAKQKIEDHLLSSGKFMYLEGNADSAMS
DR5 endogenous in human fibroblast-like synovial cells (human (endogenous in hFLSCs)): residues 56-440 of O14763
human wild-type DR5 expressed on EL4 mouse T cells (O14763, form named): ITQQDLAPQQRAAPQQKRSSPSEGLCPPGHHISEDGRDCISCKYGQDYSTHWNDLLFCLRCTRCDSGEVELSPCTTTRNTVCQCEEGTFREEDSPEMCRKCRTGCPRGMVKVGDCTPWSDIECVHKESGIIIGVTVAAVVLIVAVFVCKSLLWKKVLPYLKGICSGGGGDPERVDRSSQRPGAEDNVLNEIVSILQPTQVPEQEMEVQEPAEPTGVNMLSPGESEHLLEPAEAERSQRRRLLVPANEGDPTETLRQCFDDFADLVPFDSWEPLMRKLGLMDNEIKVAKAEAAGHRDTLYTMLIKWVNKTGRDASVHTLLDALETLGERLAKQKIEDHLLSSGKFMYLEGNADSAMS
UniProt P25445, residues 26-335: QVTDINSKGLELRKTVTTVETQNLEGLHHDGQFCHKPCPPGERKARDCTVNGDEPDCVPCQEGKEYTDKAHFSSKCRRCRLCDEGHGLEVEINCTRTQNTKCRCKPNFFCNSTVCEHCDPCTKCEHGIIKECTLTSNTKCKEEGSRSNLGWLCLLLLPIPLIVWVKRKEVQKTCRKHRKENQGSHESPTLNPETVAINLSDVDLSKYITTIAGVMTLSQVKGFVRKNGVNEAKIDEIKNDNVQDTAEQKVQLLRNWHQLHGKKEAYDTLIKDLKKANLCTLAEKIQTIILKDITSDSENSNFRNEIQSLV
UniProt O00220, residues 24-468: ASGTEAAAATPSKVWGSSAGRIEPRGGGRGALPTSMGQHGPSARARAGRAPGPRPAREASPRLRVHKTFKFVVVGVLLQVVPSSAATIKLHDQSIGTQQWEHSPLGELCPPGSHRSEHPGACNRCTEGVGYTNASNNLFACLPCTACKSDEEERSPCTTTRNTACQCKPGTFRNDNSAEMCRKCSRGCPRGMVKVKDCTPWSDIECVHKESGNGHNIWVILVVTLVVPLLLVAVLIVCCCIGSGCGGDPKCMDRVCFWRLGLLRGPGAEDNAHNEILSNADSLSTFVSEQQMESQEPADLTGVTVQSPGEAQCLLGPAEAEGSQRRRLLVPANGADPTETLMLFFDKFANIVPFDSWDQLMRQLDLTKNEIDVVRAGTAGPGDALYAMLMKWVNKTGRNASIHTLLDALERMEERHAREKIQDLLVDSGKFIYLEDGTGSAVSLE

Experiments:
[1] = target: human wild-type FasL expressed on EL4 mouse T cells (human) (UniProt P48023); experiment: flow cytometry on cells; DR5–Fc on EL4 cells transfected with human wild-type or mutated FASLG; with or without recombinant hTRAIL, anti-DR5 or anti-FasL antibodies; only the binder purified
[2] = target: DR5 re-expressed in FAS and TNFRSF10B double knockout hFLSCs (human) (UniProt O14763); experiment: flow cytometry on cells; biotinylated FasL or TRAIL on hFLSCs: wild type, FAS and/or TNFRSF10B knockout, and double knockout cells re-expressing TNFRSF10B and/or FAS; streptavidin staining; only the binder purified
[3] = target: Fas endogenous in human fibroblast-like synovial cells (human (endogenous in hFLSCs)) (UniProt P25445); experiment: as above
[4] = target: DR5 endogenous in human fibroblast-like synovial cells (human (endogenous in hFLSCs)) (UniProt O14763); experiment: as above
[5] = target: Fas re-expressed in FAS and TNFRSF10B double knockout hFLSCs (human) (UniProt P25445); experiment: as above
[6] = target: human wild-type DR5 expressed on EL4 mouse T cells (human) (UniProt O14763); experiment: flow cytometry on cells; biotinylated FasL or TRAIL on EL4 cells transfected with human TNFRSF10B or FAS, streptavidin-PE; PBS with 1% FBS and 0.09% sodium azide, 30 min, 4°C; with or without preincubation with recombinant hTRAIL or antibodies; only the binder purified
[7] = target: human wild-type DR5 expressed on EL4 mouse T cells (human) (UniProt O14763); experiment: flow cytometry on cells; FasL–Fc on EL4 cells transfected with human FAS, wild-type TNFRSF10B or mutated TNFRSF10B; with or without preincubation with human sTRAIL or sFasL; only the binder purified
[8] = target: human wild-type Fas expressed on EL4 mouse T cells (human) (UniProt P25445); experiment: as above
[9] = target: Fas endogenous in human fibroblast-like synovial cells (human (endogenous in hFLSCs)) (UniProt P25445); experiment: flow cytometry on cells; FasL–Fc on hFLSCs, detected with PE- or FITC-conjugated anti-human IgG Fc; with anti-Fas and/or anti-DR5 antibodies, siRNA knockdown of TNFRSF members, or preincubation with sTRAIL or sFasL; only the binder purified
[10] = target: DR5 endogenous in human fibroblast-like synovial cells (human (endogenous in hFLSCs)) (UniProt O14763); experiment: as above
[11] = target: DR4 endogenous in human fibroblast-like synovial cells (human (endogenous in hFLSCs)) (UniProt O00220); experiment: as above
[12] = target: DR5 endogenous in human fibroblast-like synovial cells (human (endogenous in hFLSCs)) (UniProt O14763); experiment: co-IP; 10^6 hFLSCs incubated with 200 ng/mL His-tagged TNF-α, FasL or TRAIL for 30 min at 37°C, cross-linked with 5 mM BS3, lysed; immunoprecipitated with anti-DR5 or control IgG, immunoblotted; only the binder purified
[13] = target: DR5 endogenous in human fibroblast-like synovial cells (human (endogenous in hFLSCs)) (UniProt O14763); experiment: co-IP; competition: hFLSCs preincubated with FasL and TRAIL, with an excess of TRAIL (4 μg/mL) or an excess of FasL (4 μg/mL), cross-linked with BS3; lysates immunoprecipitated with anti-DR5 or control IgG, immunoblotted; only the binder purified

binding [1]: binds
Substance: Recombinant Human TRAIL R2/TNFRSF10B Fc Chimera Protein (from UniProt O14763 56-210) (Fc fusion)

binding [2]: binds | binding [3]: binds | binding [4]: binds | binding [5]: binds | binding [6]: binds
Substance: biotinylated recombinant human Fas ligand (from UniProt P48023 130-281)

binding [7]: binds | binding [8]: binds | binding [9]: binds | binding [10]: binds | binding [11]: no binding
Substance: recombinant human FasL–Fc fusion protein (from UniProt P48023 130-281)

binding [12]: binds | binding [7]: binds | binding [8]: binds | binding [13]: binds
Substance: recombinant human soluble Fas ligand (His-tagged) (from UniProt P48023 130-281)
